Reference: the supplement of paper PMC10849652
Some of the results follow.

Amino acid sequences for entries named in this document (tags omitted). A change or cut given only in a name is not applied to a line headed by its entry.
UniProt Q02094: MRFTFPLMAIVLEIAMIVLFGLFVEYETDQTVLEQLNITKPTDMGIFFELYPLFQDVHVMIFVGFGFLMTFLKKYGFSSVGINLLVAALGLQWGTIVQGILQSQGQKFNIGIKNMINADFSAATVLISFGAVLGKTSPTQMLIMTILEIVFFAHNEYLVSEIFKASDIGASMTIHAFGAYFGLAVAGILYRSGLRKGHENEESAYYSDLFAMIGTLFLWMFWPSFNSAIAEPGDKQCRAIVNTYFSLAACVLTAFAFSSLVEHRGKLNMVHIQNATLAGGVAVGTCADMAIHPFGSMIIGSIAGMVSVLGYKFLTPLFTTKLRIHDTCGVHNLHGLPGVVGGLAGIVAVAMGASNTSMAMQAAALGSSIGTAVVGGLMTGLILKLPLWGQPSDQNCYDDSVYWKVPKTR
UniProt O15258: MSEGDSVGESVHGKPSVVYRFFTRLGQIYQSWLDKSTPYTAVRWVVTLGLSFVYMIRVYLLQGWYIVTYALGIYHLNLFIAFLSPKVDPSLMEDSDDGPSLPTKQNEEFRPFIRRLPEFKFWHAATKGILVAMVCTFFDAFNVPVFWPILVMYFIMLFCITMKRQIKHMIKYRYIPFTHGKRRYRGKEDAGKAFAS
UniProt A6NED2: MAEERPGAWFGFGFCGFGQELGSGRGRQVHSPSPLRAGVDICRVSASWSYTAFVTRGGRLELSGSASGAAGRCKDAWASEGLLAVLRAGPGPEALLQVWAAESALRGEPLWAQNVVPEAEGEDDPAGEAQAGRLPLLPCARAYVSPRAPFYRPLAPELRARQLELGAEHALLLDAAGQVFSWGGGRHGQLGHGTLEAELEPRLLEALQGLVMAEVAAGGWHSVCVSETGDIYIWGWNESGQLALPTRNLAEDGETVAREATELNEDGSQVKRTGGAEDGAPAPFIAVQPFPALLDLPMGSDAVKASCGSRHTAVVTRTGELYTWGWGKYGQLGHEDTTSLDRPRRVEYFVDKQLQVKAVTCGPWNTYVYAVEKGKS
UniProt P98179: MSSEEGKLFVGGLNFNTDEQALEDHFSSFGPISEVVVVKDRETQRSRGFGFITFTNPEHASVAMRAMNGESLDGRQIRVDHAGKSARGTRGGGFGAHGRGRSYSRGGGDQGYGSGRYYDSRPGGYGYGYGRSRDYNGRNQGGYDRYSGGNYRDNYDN
UniProt P06400: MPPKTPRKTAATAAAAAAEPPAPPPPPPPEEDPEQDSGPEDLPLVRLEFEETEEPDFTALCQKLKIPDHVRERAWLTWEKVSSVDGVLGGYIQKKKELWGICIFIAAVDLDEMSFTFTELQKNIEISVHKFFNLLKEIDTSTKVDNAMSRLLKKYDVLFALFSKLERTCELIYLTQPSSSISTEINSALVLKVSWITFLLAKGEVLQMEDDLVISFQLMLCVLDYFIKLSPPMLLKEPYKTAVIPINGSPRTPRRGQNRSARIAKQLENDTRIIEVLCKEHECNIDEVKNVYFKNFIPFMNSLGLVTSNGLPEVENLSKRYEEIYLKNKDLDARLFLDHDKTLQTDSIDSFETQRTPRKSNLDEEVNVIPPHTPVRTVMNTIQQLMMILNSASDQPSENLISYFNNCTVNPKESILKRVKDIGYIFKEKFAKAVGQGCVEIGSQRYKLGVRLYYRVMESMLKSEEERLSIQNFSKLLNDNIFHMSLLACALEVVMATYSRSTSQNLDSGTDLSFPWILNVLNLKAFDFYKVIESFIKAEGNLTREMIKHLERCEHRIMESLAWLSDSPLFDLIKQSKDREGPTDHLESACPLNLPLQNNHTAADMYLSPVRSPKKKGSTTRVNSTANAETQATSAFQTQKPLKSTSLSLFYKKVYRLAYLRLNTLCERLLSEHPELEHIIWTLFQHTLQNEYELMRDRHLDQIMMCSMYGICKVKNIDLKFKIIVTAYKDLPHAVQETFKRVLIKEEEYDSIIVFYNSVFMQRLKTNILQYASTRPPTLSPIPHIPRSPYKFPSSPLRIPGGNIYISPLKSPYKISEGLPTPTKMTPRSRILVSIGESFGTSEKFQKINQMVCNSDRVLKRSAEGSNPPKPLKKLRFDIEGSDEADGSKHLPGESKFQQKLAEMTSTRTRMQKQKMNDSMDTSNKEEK
UniProt Q96D15: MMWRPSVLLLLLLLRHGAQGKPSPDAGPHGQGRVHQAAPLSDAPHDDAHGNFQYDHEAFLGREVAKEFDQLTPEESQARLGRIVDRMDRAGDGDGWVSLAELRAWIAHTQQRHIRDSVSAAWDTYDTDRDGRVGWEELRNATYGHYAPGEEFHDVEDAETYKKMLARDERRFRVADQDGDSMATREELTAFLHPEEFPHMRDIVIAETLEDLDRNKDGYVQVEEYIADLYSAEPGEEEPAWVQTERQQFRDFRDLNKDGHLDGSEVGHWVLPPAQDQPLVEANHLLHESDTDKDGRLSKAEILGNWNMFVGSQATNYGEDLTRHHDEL
UniProt P40938, whole entry, looked up: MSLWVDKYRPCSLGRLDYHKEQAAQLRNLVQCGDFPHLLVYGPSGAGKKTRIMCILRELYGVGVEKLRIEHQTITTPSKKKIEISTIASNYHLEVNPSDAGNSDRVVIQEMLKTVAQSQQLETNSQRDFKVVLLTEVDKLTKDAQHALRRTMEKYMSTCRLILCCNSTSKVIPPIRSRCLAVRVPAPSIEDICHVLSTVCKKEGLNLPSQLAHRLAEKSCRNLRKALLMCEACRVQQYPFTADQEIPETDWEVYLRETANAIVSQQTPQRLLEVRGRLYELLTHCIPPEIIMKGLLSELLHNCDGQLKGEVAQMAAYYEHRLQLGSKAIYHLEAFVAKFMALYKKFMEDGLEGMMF
UniProt Q96I25: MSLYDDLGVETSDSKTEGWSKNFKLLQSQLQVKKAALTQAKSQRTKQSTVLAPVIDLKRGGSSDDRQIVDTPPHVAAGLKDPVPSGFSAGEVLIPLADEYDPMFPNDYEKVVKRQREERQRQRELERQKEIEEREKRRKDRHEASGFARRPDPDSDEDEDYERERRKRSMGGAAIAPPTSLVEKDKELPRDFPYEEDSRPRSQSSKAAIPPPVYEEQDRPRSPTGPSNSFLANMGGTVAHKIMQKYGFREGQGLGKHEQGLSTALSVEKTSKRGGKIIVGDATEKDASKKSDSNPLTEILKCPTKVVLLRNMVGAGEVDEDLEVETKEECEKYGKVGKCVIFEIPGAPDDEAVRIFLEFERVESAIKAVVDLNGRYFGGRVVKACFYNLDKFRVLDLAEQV
UniProt Q96T37: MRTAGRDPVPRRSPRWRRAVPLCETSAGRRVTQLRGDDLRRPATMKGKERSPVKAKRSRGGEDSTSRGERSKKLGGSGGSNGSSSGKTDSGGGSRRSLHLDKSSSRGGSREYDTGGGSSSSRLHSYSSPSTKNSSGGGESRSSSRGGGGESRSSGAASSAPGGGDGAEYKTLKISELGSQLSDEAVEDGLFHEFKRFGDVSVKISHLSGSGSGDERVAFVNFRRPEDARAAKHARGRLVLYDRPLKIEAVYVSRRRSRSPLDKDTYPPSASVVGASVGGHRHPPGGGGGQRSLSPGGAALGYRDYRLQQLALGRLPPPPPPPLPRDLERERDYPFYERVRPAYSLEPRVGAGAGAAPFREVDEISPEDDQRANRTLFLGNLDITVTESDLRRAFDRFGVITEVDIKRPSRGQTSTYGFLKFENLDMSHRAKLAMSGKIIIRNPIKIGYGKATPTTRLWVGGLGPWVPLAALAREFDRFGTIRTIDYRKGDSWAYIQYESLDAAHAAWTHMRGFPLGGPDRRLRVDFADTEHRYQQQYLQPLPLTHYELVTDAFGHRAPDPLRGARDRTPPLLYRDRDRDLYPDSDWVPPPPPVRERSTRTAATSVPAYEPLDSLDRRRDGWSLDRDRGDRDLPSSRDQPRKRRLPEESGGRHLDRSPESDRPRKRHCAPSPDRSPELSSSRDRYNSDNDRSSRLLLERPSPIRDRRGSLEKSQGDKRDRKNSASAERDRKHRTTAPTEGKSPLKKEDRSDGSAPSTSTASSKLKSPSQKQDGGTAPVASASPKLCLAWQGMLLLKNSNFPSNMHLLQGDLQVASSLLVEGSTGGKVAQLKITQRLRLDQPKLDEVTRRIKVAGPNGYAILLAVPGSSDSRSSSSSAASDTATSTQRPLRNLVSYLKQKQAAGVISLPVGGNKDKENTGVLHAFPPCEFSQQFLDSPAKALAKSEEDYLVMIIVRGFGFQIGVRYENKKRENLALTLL
UniProt O43665: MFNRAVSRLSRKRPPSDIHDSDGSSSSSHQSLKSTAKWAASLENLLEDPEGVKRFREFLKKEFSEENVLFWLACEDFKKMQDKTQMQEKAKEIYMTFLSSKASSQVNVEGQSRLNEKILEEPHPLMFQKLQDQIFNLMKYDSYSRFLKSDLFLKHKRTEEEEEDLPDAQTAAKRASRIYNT
UniProt Q96IC2: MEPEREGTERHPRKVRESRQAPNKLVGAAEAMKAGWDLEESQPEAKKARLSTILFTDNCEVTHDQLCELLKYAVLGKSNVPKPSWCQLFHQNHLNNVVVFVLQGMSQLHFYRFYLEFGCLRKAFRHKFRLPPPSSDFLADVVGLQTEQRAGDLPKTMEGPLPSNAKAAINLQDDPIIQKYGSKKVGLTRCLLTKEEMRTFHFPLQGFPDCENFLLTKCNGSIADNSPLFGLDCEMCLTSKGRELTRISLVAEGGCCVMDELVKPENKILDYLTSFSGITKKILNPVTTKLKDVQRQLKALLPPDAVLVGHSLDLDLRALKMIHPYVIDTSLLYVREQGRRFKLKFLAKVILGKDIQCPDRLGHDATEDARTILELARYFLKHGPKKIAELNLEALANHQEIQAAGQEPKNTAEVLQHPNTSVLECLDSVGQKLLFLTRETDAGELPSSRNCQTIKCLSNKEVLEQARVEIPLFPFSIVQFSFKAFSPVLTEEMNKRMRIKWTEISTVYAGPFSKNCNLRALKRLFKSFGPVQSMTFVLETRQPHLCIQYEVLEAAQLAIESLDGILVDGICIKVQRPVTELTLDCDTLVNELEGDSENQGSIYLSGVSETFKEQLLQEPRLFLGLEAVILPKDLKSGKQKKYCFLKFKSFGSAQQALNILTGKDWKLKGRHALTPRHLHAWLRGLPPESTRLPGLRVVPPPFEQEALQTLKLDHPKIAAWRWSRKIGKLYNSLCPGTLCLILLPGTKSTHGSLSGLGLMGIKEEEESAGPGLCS
UniProt P35250, whole entry, looked up: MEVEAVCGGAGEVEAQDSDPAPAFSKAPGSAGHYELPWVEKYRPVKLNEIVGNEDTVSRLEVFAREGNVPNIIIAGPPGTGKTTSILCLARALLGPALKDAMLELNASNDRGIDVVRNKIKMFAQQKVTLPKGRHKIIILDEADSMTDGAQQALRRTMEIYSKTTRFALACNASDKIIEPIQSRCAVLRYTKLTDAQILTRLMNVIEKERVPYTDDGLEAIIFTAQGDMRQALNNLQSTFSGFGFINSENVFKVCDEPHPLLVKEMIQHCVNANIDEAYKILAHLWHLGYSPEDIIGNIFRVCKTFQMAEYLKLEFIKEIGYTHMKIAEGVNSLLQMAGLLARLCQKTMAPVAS
UniProt Q5TC82: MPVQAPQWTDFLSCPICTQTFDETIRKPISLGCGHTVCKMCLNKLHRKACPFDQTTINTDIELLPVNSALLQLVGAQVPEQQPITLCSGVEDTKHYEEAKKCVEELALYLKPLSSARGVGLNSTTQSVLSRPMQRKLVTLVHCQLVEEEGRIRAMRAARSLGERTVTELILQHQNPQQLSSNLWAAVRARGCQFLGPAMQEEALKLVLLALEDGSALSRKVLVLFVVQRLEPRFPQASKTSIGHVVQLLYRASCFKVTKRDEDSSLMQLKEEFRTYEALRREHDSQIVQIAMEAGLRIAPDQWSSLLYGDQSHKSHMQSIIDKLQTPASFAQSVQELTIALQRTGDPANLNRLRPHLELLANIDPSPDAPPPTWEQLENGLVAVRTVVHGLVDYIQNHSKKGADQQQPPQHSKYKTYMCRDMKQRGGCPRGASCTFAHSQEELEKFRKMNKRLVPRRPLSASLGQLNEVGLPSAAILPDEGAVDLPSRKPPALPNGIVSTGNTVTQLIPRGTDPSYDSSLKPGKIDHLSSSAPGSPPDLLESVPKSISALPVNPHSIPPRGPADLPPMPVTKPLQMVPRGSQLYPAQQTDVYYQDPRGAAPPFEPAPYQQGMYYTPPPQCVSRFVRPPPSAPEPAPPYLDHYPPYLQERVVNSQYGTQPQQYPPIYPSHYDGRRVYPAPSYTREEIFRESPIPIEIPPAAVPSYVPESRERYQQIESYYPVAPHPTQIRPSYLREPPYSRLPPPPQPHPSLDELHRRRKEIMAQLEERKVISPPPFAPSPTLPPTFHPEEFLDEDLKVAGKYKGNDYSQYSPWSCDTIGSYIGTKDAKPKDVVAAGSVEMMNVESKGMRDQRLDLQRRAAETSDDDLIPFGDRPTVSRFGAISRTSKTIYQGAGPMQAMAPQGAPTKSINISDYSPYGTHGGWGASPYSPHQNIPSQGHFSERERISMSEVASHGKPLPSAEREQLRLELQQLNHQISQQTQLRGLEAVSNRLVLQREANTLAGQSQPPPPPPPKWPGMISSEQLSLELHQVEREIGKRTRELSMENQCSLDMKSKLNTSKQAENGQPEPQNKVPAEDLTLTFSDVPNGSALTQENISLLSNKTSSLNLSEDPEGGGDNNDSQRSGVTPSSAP

Columns and labels:
Assay in all cases: log2 fold change, soluble protein after heating vs DMSO (PISA); higher = thermal stabilisation; K562 lysate, 10 uM; active = over 0.2 and 3.5 SD of the protein, either way, in both replicates (recomputed)
[1] = compound: C#Cc1cccc(Nc2ncnc3cc(OCCOC)c(OCCOC)cc23)c1 [erlotinib]
Method in brief: (§1)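 A 30 min treatment with 10 μM compound was applied to crude K562 extract at 1 mg/mL protein in PBS pH 7.4 with 1 mM MgCl2. Heating for 3 min spanned 48°C-58°C, after which aliquots were pooled, adjusted to 0.5% NP-40 at 4°C and spun at 21,000xg for 90 min. TMTpro 16plex LC-MS/MS of the supernatant, with channel sums equalised, gave values recorded as log-two fold change in thermal stability against solvent controls, from duplicates.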

[2] = compound: C/C(=N\NC(=O)C1=CC(=CC=C1)S(=O)(=O)N2CCOCC2)/C3=C(C=CC(=C3)Cl)O
Method in brief: as §1

[3] = compound: C1=CC(=CC=C1C2=NC3=C(N2)C=C(C=C3)C(=O)N)OC4=CC=C(C=C4)Cl
Method in brief: as §1

[4] = compound: C1=CC2=C(C=CC(=C2)/C=C\3/C(=O)NC(=NCC4=CC=CS4)S3)N=C1
Method in brief: as §1

[5] = compound: C1=CC2=NC=CN=C2C=C1/C=C/3\C(=O)NC(=O)S3
Method in brief: as §1

[6] = compound: C1=CC=C(C=C1)C2=NC(=C(N2)C3=CC=NC=C3)C4=CC(=C(C=C4)Cl)O
Method in brief: as §1

[7] = compound: C1=CC=C2C(=C1)C3=NNC4=CC=CC(=C43)C2=O
Method in brief: as §1

[8] = compound: C1CCN(C1)C(=O)NC2=CC=CC(=C2)NC3=NC=C(C(=N3)NCCC4=CN=CN4)Br
Method in brief: as §1

[9] = compound: C1CN(CCC1(CC2=CC=C(C=C2)Cl)N)C3=NC=NC4=C3C=CN4
Method in brief: as §1

[10] = compound: C1COCCN1CCN2C3=CC=CC=C3N=C2NC(=O)C4=CC(=CC=C4)[N+](=O)[O-] [IRAK-1-4 Inhibitor I]
Method in brief: as §1

Measured: log2 fold change

RHAG (UniProt Q02094)
inactive: [1] 0.017 | [2] -0.123 | [3] -0.087 | [4] 0.086 | [5] -0.007 | [6] -0.012 | [7] -0.145 | [8] -0.126 | [9] -0.014 | [10] 0.081

RFX1 (UniProt P22670)
inactive: [1] -0.015 | [2] -0.005 | [3] -0.028 | [4] 0.001 | [5] 0 | [6] 0.003 | [7] -0.045 | [8] 0.003 | [9] -0.01 | [10] 0.017

RER1 (UniProt O15258)
inactive: [1] 0.006 | [2] 0.048 | [3] -0.041 | [4] 0.029 | [5] 0.017 | [6] -0.014 | [7] -0.052 | [8] 0 | [9] -0.043 | [10] 0.044

RAPGEF6 isoform 4 (UniProt Q8TEU7)
inactive: [1] 0.022 | [2] -0.033 | [3] 0.022 | [4] 0.034 | [5] -0.005 | [6] -0.007 | [7] -0.052 | [8] -0.026 | [9] -0.015 | [10] 0.014

RCCD1 (UniProt A6NED2)
inactive: [1] 0.082 | [2] -0.097 | [3] 0.037 | [4] 0 | [5] -0.015 | [6] -0.076 | [7] 0.091 | [8] 0.067 | [9] 0.068 | [10] -0.017

RBM3 (UniProt P98179)
inactive: [1] -0.031 | [2] -0.023 | [3] -0.067 | [4] -0.013 | [5] 0.044 | [6] 0.016 | [7] 0.055 | [8] 0.109 | [9] -0.044 | [10] -0.001

RAPGEF5, A0A590UJR0
inactive: [1] -0.118 | [2] 0.006 | [3] 0.071 | [4] -0.163 | [5] -0.199 | [6] 0.043 | [7] -0.028 | [8] -0.049 | [9] -0.022 | [10] 0.08

RDH13 (UniProt Q8NBN7)
inactive: [1] 0.014 | [2] -0.064 | [3] -0.155 | [4] -0.074 | [5] 0.052 | [6] 0.003 | [7] 0.04 | [8] -0.052 | [9] -0.003 | [10] 0.012

RBM42 (UniProt Q9BTD8)
inactive: [1] -0.034 | [2] -0.161 | [3] 0.073 | [4] -0.062 | [5] -0.018 | [6] -0.009 | [7] -0.05 | [8] -0.017 | [9] -0.014 | [10] 0.049

RBM25 (UniProt P49756)
inactive: [1] 0 | [2] -0.023 | [3] 0.1 | [4] -0.006 | [5] -0.036 | [6] -0.064 | [7] -0.045 | [8] -0.027 | [9] 0.024 | [10] 0.031

RB1 (UniProt P06400)
inactive: [1] -0.043 | [2] 0.051 | [3] -0.013 | [4] -0.015 | [5] -0.015 | [6] 0.006 | [7] -0.026 | [8] -0.012 | [9] 0.012 | [10] 0.008

RAVER1 (UniProt E9PAU2)
inactive: [1] 0.034 | [2] 0.035 | [3] 0.029 | [4] -0.01 | [5] -0.003 | [6] -0.016 | [7] 0 | [8] -0.06 | [9] 0.044 | [10] 0.016

RCN3 (UniProt Q96D15)
inactive: [1] 0.01 | [2] 0.049 | [3] -0.016 | [4] -0.064 | [5] -0.009 | [6] -0.014 | [7] -0.057 | [8] -0.03 | [9] 0.01 | [10] 0.023

RBM4 (UniProt Q9BWF3)
inactive: [1] -0.031 | [2] 0.059 | [3] -0.008 | [4] 0.009 | [5] 0.008 | [6] -0.065 | [7] -0.008 | [8] 0.001 | [9] 0 | [10] -0.003

RFC3 (UniProt P40938)
inactive: [1] 0.05 | [2] 0.01 | [3] -0.034 | [4] 0.024 | [5] 0.005 | [6] 0.005 | [7] -0.027 | [8] -0.002 | [9] 0.049 | [10] 0.028

RBM6 (UniProt P78332)
inactive: [1] -0.005 | [2] 0.042 | [3] 0.082 | [4] -0.017 | [5] -0.063 | [6] 0.054 | [7] -0.07 | [8] -0.002 | [9] 0.009 | [10] -0.006

RBM17 (UniProt Q96I25)
inactive: [1] -0.009 | [2] 0.024 | [3] 0.006 | [4] -0.011 | [5] -0.05 | [6] 0.039 | [7] -0.009 | [8] -0.006 | [9] 0.023 | [10] -0.018

RELN (UniProt P78509)
inactive: [1] 0.012 | [2] 0.004 | [3] 0.014 | [4] 0.025 | [5] 0.001 | [6] 0.033 | [7] -0.015 | [8] 0.042 | [9] 0.058 | [10] 0.002

RBM15 (UniProt Q96T37)
inactive: [1] -0.035 | [2] -0.117 | [3] 0.04 | [4] -0.023 | [5] -0.101 | [6] 0.064 | [7] -0.047 | [8] -0.1 | [9] 0.014 | [10] -0.288

RETREG3 (UniProt Q86VR2)
inactive: [1] 0.045 | [2] -0.009 | [3] -0.088 | [4] -0.018 | [5] 0.037 | [6] 0.007 | [7] -0.095 | [8] 0.038 | [9] 0.001 | [10] 0.091

RFK (UniProt Q969G6)
inactive: [1] 0.003 | [2] 0.034 | [3] 0.032 | [4] -0.046 | [5] -0.071 | [6] -0.003 | [7] 0.077 | [8] 0.062 | [9] 0.073 | [10] 0.028

RGS10 (UniProt O43665)
inactive: [1] 0.006 | [2] -0.013 | [3] 0.026 | [4] -0.006 | [5] 0.002 | [6] 0.002 | [7] 0.057 | [8] -0.007 | [9] -0.003 | [10] 0.018

REXO5 (UniProt Q96IC2)
inactive: [1] 0.027 | [2] -0.06 | [3] 0.029 | [4] -0.034 | [5] -0.021 | [6] 0.021 | [7] 0.021 | [8] -0.057 | [9] -0.02 | [10] -0.011

RFC2 (UniProt P35250)
inactive: [1] -0.004 | [2] 0.017 | [3] -0.059 | [4] -0.017 | [5] 0.018 | [6] 0.004 | [7] -0.013 | [8] -0.011 | [9] -0.031 | [10] -0.013

RFLNB (UniProt Q8N5W9)
inactive: [1] -0.109 | [2] -0.142 | [3] -0.087 | [4] 0.044 | [5] 0.094 | [6] -0.077 | [7] 0.001 | [8] 0.064 | [9] -0.008 | [10] 0.141

Two entries drawn at random from those above:
RFC2 (UniProt P35250)
inactive: [1] -0.004 | [2] 0.017 | [3] -0.059 | [4] -0.017 | [5] 0.018 | [6] 0.004 | [7] -0.013 | [8] -0.011 | [9] -0.031 | [10] -0.013

RFK (UniProt Q969G6)
inactive: [1] 0.003 | [2] 0.034 | [3] 0.032 | [4] -0.046 | [5] -0.071 | [6] -0.003 | [7] 0.077 | [8] 0.062 | [9] 0.073 | [10] 0.028

Next part:

RC3H1 (UniProt Q5TC82)
inactive: [1] 0.031 | [2] -0.042 | [3] 0.089 | [4] -0.129 | [5] 0.103 | [6] 0.003 | [7] -0.086 | [8] 0.077 | [9] -0.022 | [10] 0.009

RBM26 isoform 3 (UniProt Q5T8P6)
inactive: [1] -0.051 | [2] -0.171 | [3] 0.021 | [4] -0.052 | [5] -0.104 | [6] 0.045 | [7] -0.004 | [8] 0.049 | [9] -0.059 | [10] -0.003

RBP5 (UniProt P82980)
inactive: [1] 0.037 | [2] 0.029 | [3] -0.11 | [4] 0.101 | [6] 0.077 | [7] 0.139 | [8] -0.055 | [9] -0.144 | [10] 0

RECQL (UniProt P46063)
inactive: [1] 0.001 | [2] 0.039 | [3] 0.027 | [4] 0.034 | [5] -0.009 | [6] 0.003 | [7] -0.03 | [8] -0.026 | [9] -0.012 | [10] -0.002
